Laboratory results reported in PMC8782181.

Sequences of proteins named here, by UniProt entry; tags and fusion partners are left off.
UniProt P53297: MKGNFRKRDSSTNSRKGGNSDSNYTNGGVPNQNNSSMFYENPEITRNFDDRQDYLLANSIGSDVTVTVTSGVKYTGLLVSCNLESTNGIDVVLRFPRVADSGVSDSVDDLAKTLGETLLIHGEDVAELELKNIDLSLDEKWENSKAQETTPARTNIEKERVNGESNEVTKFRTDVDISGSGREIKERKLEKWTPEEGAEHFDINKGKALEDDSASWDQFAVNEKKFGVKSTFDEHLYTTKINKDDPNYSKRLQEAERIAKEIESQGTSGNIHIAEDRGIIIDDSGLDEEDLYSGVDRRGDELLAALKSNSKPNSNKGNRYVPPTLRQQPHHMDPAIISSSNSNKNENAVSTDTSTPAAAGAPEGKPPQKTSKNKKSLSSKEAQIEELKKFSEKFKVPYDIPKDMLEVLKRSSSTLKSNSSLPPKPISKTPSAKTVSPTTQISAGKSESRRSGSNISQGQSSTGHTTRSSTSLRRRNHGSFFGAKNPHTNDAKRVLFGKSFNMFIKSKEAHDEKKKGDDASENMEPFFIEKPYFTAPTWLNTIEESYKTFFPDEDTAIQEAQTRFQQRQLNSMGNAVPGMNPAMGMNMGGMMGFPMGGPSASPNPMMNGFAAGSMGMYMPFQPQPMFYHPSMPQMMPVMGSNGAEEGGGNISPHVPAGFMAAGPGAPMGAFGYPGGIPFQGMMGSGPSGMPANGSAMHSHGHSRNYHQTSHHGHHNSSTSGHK

B1: Rie1 (protein, UniProt P53316 1-781)
chain: MNIAEEPSDEVISSGPEDTDICSQQTSASAEAGDQSIKIERKTSTGLQLEQLANTNLLTIRIKWQLQEEEDDHCNSRITDQIMDTIQHYKGISVNNSDTETYEFLPDTRRLQVLEQNKDIYLYEHGSQEYEKSYKDNEEEDDWRYDTVLQAQFKYPKSLENACTDISELLKSEPIGQHIDKWSIGVNKHALTYPGNIFVGGIAKSLSIGELSFLFSKYGPILSMKLIYDKTKGEPNGYGFISYPLGSQASLCIKELNGRTVNGSTLFINYHVERKERERIHWDHVKENNNDDNFRCLFIGNLPYHNPEKVETLITPKEVIEVIKKELSKKFPDFDIISYYFPKRSNTRSSSSVSFNEEGSVESNKSSNNTNGNAQDEDMLKGYGFIKLINHEQALAAIETFNGFMWHGNRLVVNKAVQHKVYNNHNSHDRHPSISNHNDMEVLEFANNPMYDYNNYTYDRYYFNNNKNGNSNDTSNVRYFDSVRSTPVAEKMDLFYPQRESFSEGRGQRVPRFMGNKFDMYQYPSTSYSLPIPMSNQQESNLYVKHIPLSWTDEDLYDFYKSFGEIISVKVITVGGSKNKYRQQSNDSSSDNDLPVGSSRGYGFVSFESPLDAAKAILNTDGYQVSKDQVLSVSFAQKRGNLSSSDDDDQSQTDNSSKFQNFQPHNDYHKAYPTKYNKKFINALMTQNQSQQQVSRENYFIPLQYPNTNTKPVNSYNLISANQNNANWMMPMFPSFGFIPQVPPVPYIIPPQNPAANHIPIMANGSNEEEEFSSGDYSMDY
B2: Sec27 (protein, UniProt P41811 1-889)
chain: MKLDIKKTFSNRSDRVKGIDFHPTEPWVLTTLYSGRVELWNYETQVEVRSIQVTETPVRAGKFIARKNWIIVGSDDFRIRVFNYNTGEKVVDFEAHPDYIRSIAVHPTKPYVLSGSDDLTVKLWNWENNWALEQTFEGHEHFVMCVAFNPKDPSTFASGCLDRTVKVWSLGQSTPNFTLTTGQERGVNYVDYYPLPDKPYMITASDDLTIKIWDYQTKSCVATLEGHMSNVSFAVFHPTLPIIISGSEDGTLKIWNSSTYKVEKTLNVGLERSWCIATHPTGRKNYIASGFDNGFTVLSLGNDEPTLSLDPVGKLVWSGGKNAAASDIFTAVIRGNEEVEQDEPLSLQTKELGSVDVFPQSLAHSPNGRFVTVVGDGEYVIYTALAWRNKAFGKCQDFVWGPDSNSYALIDETGQIKYYKNFKEVTSWSVPMHSAIDRLFSGALLGVKSDGFVYFFDWDNGTLVRRIDVNAKDVIWSDNGELVMIVNTNSNGDEASGYTLLFNKDAYLEAANNGNIDDSEGVDEAFDVLYELSESITSGKWVGDVFIFTTATNRLNYFVGGKTYNLAHYTKEMYLLGYLARDNKVYLADREVHVYGYEISLEVLEFQTLTLRGEIEEAIENVLPNVEGKDSLTKIARFLEGQEYYEEALNISPDQDQKFELALKVGQLTLARDLLTDESAEMKWRALGDASLQRFNFKLAVEAFTNAHDLESLFLLHSSFNNKEGLVTLAKDAERAGKFNLAFNAYWIAGDIQGAKDLLIKSQRFSEAAFLGSTYGLGDDAVNDIVTKWKENLILNGKNTVSERVCGAEGLPGSSSSGDAQPLIDLDSTPAPEQADENKEAEVEDSEFKESNSEAVEAEKKEEEAPQQQQSEQQPEQGEAVPEPVEEES
B3: Phb1 (protein, UniProt P40961 1-287)
chain: MSNSAKLIDVITKVALPIGIIASGIQYSMYDVKGGSRGVIFDRINGVKQQVVGEGTHFLVPWLQKAIIYDVRTKPKSIATNTGTKDLQMVSLTLRVLHRPEVLQLPAIYQNLGLDYDERVLPSIGNEVLKSIVAQFDAAELITQREIISQKIRKELSTRANEFGIKLEDVSITHMTFGPEFTKAVEQKQIAQQDAERAKFLVEKAEQERQASVIRAEGEAESAEFISKALAKVGDGLLLIRRLEASKDIAQTLANSSNVVYLPSQHSGGGNSESSGSPNSLLLNIGR
B4: Sgn1 (protein, UniProt P40561 1-250)
chain: MSQEEKVDAKATLKTEISNNKKNDKQELELDELVGKLSIEGTPQVSQKLSKEEKHAHQLEADSRSIFVGNITPDVTPEQIEDHFKDCGQIKRITLLYDRNTGTPKGYGYIEFESPAYREKALQLNGGELKGKKIAVSRKRTNIPGFNRHYNSQNQYFQQWQWNYPLMAYPNPDTFPYYPPYPPNQSPNQNFGYNKNNYYRSPYNNKNRTFQKKHFNSAKDSTKNIRSTSQKPVVMPSDNVKSSTQEKDSK
B5: Pil1 (protein, UniProt P53252 1-339)
chain: MHRTYSLRNSRAPTASQLQNPPPPPSTTKGRFFGKGGLAYSFRRSAAGAFGPELSRKLSQLVKIEKNVLRSMELTANERRDAAKQLSIWGLENDDDVSDITDKLGVLIYEVSELDDQFIDRYDQYRLTLKSIRDIEGSVQPSRDRKDKITDKIAYLKYKDPQSPKIEVLEQELVRAEAESLVAEAQLSNITRSKLRAAFNYQFDSIIEHSEKIALIAGYGKALLELLDDSPVTPGETRPAYDGYEASKQIIIDAESALNEWTLDSAQVKPTLSFKQDYEDFEPEEGEEEEEEDGQGRWSEDEQEDGQIEEPEQEEEGAVEEHEQVGHQQSESLPQQTTA
B6: Puf4 (protein, UniProt P25339 1-888)
chain: MSTKGLKEEIDDVPSVDPVVSETVNSALEQLQLDDPEENATSNAFANKVSQDSQFANGPPSQMFPHPQMMGGMGFMPYSQMMQVPHNPCPFFPPPDFNDPTAPLSSSPLNAGGPPMLFKNDSLPFQMLSSGAAVATQGGQNLNPLINDNSMKVLPIASADPLWTHSNVPGSASVAIEETTATLQESLPSKGRESNNKASSFRRQTFHALSPTDLINAANNVTLSKDFQSDMQNFSKAKKPSVGANNTAKTRTQSISFDNTPSSTSFIPPTNSVSEKLSDFKIETSKEDLINKTAPAKKESPTTYGAAYPYGGPLLQPNPIMPGHPHNISSPIYGIRSPFPNSYEMGAQFQPFSPILNPTSHSLNANSPIPLTQSPIHLAPVLNPSSNSVAFSDMKNDGGKPTTDNDKAGPNVRMDLINPNLGPSMQPFHILPPQQNTPPPPWLYSTPPPFNAMVPPHLLAQNHMPLMNSANNKHHGRNNNSMSSHNDNDNIGNSNYNNKDTGRSNVGKMKNMKNSYHGYYNNNNNNNNNNNNNNNSNATNSNSAEKQRKIEESSRFADAVLDQYIGSIHSLCKDQHGCRFLQKQLDILGSKAADAIFEETKDYTVELMTDSFGNYLIQKLLEEVTTEQRIVLTKISSPHFVEISLNPHGTRALQKLIECIKTDEEAQIVVDSLRPYTVQLSKDLNGNHVIQKCLQRLKPENFQFIFDAISDSCIDIATHRHGCCVLQRCLDHGTTEQCDNLCDKLLALVDKLTLDPFGNYVVQYIITKEAEKNKYDYTHKIVHLLKPRAIELSIHKFGSNVIEKILKTAIVSEPMILEILNNGGETGIQSLLNDSYGNYVLQTALDISHKQNDYLYKRLSEIVAPLLVGPIRNTPHGKRIIGMLHLDS
B7: Scd6 (protein, UniProt P45978 1-349)
chain: MSQYIGKTISLISVTDNRYVGLLEDIDSEKGTVTLKEVRCFGTEGRKNWGPEEIYPNPTVYNSVKFNGSEVKDLSILDANINDIQPVVPQMMPPASQFPPQQAQSPPQAQAQAHVQTNPQVPKPESNVPAAVAGYGVYTPTSTETATASMNDKSTPQDTNVNSQSRERGKNGENEPKYQRNKNRSSNRPPQSNRNFKVDIPNEDFDFQSNNAKFTKGDSTDVEKEKELESAVHKQDESDEQFYNKKSSFFDTISTSTETNTNMRWQEEKMLNVDTFGQASARPRFHSRGLGRGRGNYRGNRGNRGRGGQRGNYQNRNNYQNDSGAYQNQNDSYSRPANQFSQPPSNVEF
B8: Nop4 (protein, UniProt P37838 1-685)
chain: MEETIENVEVPSSNVSKQNDDGLDMKTLFVRSIPQDVTDEQLADFFSNFAPIKHAVVVKDTNKRSRGFGFVSFAVEDDTKEALAKARKTKFNGHILRVDIAKRRDRSKKTSEVVEKSTPESSEKITGQNNEDEDDADGEDSMLKGKPKLIIRNMPWSCRDPVKLKKIFGRYGTVVEATIPRKRDGKLCGFAFVTMKKISNCRIALENTKDLKIDGRKVAVDFAVQKNRWEDYKKAQPEMNDKDDNESGNEDAEENHDDEEDENEEEDRQVDQASKNKESKRKAQNKREDFSVFVRNVPYDATEESLAPHFSKFGSVKYALPVIDKSTGLAKGTAFVAFKDQYTYNECIKNAPAAGSTSLLIGDDVMPEYVYEGRVLSITPTLVREDAGRMAEKNAAKRKEALGKAPGEKDRRNLYLLNEGRVVEGSKMADLLTNTDMEIREKSYKLRVEQLKKNPSLHLSMTRLAIRNLPRAMNDKALKALARKAVVEFATEVKNKERHPLSKEEIIRSTKEKYKFMGPDEIEAQKKKDKKSGVVKQAKVIMEVKGSTAGRSRGYGFVEFRDHKNALMGLRWLNCHAVTSDEILEGLNDDEKKQVDNDLGKGRRLCVEFAIENSNVVKRRREQLKQARTKRTRPDNEDTGDVGESENKKPKKEEATTPTNPDDKKMGDDIKRIIGFKRKRKHAKK
B9: Pub1 (protein, UniProt P32588 1-453)
chain: MSENNEEQHQQQQQQQPVAVETPSAVEAPASADPSSEQSVAVEGNSEQAEDNQGENDPSVVPANAITGGRETSDRVLYVGNLDKAITEDILKQYFQVGGPIANIKIMIDKNNKNVNYAFVEYHQSHDANIALQTLNGKQIENNIVKINWAFQSQQSSSDDTFNLFVGDLNVNVDDETLRNAFKDFPSYLSGHVMWDMQTGSSRGYGFVSFTSQDDAQNAMDSMQGQDLNGRPLRINWAAKRDNNNNNNYQQRRNYGNNNRGGFRQYNSNNNNNMNMGMNMNMNMNMNNSRGMPPSSMGMPIGAMPLPSQGQPQQSQTIGLPPQVNPQAVDHIIRSAPPRVTTAYIGNIPHFATEADLIPLFQNFGFILDFKHYPEKGCCFIKYDTHEQAAVCIVALANFPFQGRNLRTGWGKERSNFMPQQQQQGGQPLIMNDQQQPVMSEQQQQQQQQQQQQ
B10: Rbg1 (protein, UniProt P39729 1-369)
chain: MSTTVEKIKAIEDEMARTQKNKATSFHLGQLKAKLAKLRRELLTSASSGSGGGAGIGFDVARTGVASVGFVGFPSVGKSTLLSKLTGTESEAAEYEFTTLVTVPGVIRYKGAKIQMLDLPGIIDGAKDGRGRGKQVIAVARTCNLLFIILDVNKPLHHKQIIEKELEGVGIRLNKTPPDILIKKKEKGGISITNTVPLTHLGNDEIRAVMSEYRINSAEIAFRCDATVDDLIDVLEASSRRYMPAIYVLNKIDSLSIEELELLYRIPNAVPISSGQDWNLDELLQVMWDRLNLVRIYTKPKGQIPDFTDPVVLRSDRCSVKDFCNQIHKSLVDDFRNALVYGSSVKHQPQYVGLSHILEDEDVVTILKK

Each binder was assayed against Pbp1-myc (S. cerevisiae) (UniProt P53297) (assay: affinity purification with mass spectrometry; cells unstressed or glucose-depleted (10 min for Dcp1-myc, 60 min for Pbp1-myc), cross-linked with 0.8% formaldehyde; 20,000 g pellet of the lysate in Blob100 buffer (20 mM Tris-HCl pH 8, 100 mM NaCl, 1 mM MgCl2, 0.5% NP40) on anti-c-Myc magnetic beads, eluted with Myc peptide; label-free LC-MS/MS; hits are the proteins that cluster (Mfuzz) with the tagged bait across IP, pellet, supernatant, total and unbound fractions).

binding, binds:
B1, B2, B3, B4, B5, B6, B7, B8, B9, B10

These are yes or no findings as the source states them, for the method shown. In cells and extracts the contact can be indirect. Here binding means that the protein was enriched with, or labelled near, the bait; the list need not be complete.
